We go through 1 substance from paper doi:10.1101/2024.04.28.591571.

By UniProt entry, the sequences of proteins in these tests, tags left out.
UniProt Q96J02: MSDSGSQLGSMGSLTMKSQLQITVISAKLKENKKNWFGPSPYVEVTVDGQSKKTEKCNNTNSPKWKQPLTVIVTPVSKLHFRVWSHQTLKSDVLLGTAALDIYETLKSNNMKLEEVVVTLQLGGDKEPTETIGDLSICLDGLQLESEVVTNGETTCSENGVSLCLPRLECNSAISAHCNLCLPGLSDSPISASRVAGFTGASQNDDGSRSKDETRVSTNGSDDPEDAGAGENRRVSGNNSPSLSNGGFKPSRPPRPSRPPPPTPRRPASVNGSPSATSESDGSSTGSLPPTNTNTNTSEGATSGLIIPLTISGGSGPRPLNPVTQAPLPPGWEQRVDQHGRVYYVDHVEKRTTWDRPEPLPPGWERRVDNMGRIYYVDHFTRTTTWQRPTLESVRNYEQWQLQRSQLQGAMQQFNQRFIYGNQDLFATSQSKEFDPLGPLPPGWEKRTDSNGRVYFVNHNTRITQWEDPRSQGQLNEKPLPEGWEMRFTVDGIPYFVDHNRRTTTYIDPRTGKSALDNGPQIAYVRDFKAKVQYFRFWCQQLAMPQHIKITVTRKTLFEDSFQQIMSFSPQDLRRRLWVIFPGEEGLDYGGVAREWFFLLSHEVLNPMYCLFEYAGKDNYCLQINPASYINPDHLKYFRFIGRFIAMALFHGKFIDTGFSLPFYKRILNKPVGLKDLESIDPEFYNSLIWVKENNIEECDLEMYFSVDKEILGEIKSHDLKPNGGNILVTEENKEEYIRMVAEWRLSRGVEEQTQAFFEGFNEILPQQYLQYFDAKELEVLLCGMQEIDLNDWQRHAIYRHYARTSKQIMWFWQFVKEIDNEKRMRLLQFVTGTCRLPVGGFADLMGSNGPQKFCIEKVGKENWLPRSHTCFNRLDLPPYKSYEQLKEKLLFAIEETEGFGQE
UniProt P98170: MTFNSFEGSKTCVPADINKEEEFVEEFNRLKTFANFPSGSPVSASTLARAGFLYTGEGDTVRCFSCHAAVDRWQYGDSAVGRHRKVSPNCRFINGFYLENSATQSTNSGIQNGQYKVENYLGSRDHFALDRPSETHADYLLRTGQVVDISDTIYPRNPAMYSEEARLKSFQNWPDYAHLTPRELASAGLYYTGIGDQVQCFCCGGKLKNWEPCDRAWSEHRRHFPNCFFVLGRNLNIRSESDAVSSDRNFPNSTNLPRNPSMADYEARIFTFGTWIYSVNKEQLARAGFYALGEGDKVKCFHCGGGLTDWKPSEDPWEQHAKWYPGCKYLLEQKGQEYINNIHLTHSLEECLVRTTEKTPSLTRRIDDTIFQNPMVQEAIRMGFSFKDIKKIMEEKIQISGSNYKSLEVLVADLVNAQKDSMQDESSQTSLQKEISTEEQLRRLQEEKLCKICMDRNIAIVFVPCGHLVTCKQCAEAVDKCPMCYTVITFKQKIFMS

The target of this experiment is ITCH (E3 ubiquitin ligase) (human (endogenous in K562)) (UniProt Q96J02). The experiment can be described thus: co-IP.

No constants are given. Whether binding was seen depends on the method and setting. Binding seen in cells or lysates may run through a third protein.

Consider “X-Linked Inhibitor of Apoptotic Proteins (XIAP) (from UniProt P98170 1-497)”, for which the binding result is reported as “no binding”.
